Results reported in patent US20100316634A1 (published 2010).

B1: murine monoclonal antibody 2B6 (antibody, V domains shown)
VH: QVQLKESGPGLVAPSQSLSITCTVSGFSLTSYSVHWVRQPPGKGLEWLGVIWASGGTDYNSALMSRLSISKDNSKSQVFLKLNSLQTDDTAMYYCARDPPSSLLRLDYWGQGTTLTVSS
VL: DIVMTQSPSSLSVSAGEKVTMSCKSSQSLLNSGNQKNYLAWYQQKPGQPPKLLIYGASTRESGVPDRFTGSGSGTDFTLSISSVQAEDLAVYYCQNVHSFPFTFGSGTELEIK
B2: murine monoclonal antibody 2E3 (antibody, V domains shown)
VH: PGLVAPSQSLSITCTVSGFSLTSYSVHWVRQPPGKGLEWLGVIWASGGTDYNSALMSRLSISKDNSKSQVFLKLNSLQTDDAAMYYCARDPPFSLLRLDFWGQGTTLTVSS
VL: SSLSVSAGEKVTMSCKSSQSLLNSGNQKNYLAWYQQKPGQPPKLLIYGASTRESGVPDRFTGSGSGTDFTLTISSVQAEDLAVYYCQNDHSFPFTFGSGTELEIK
B3: murine monoclonal antibody 2F2 (antibody, V domains shown)
VH: PGLVAPSQSLSITCTVSGFSLTSYSVHWVRQPPGKGLEWLGVIWASGGTDYNSALMSRLSISKDNSKSQVFLKLNSLRTDDTAMYYCARDPPSSLLRLDYWGQGTTLTVSS
VL: SSLSVSAGEKVTMSCKSSQSLLNSGNQKNYLAWYQQKPGQPPKLLIYGASTRESGVPDRFTGSGSGTDFTLTISSVQAEDLAVYYCQNDHSFPFTFGSGTELEIK

target: human TGF (Greek letter lost) (human); assay: ELISA, supernatants of the cloned lines

binding, no binding:
B1
B2
B3

No constants are given. Whether binding was seen depends on the method and setting.
